Assay results as given in patent publication US20130225669A1 (priority 2012, published 2013).

Assay: Three-point bending tests of genipin-treated bone
Parameters: species or system bovine
Conditions: for bending modulus / maximum flexural strength: one week

Question: With `COC(=O)C1=CO[C@@H](O)C2C(CO)=CC[C@H]12` (stereo in doubt) [genipin, methyl (1R,2R,6S)-2-hydroxy-9-(hydroxymethyl)-3-oxabicyclo [4.3.0]nona-4,8-diene-5-carboxylate] as the compound, how does the “bone mechanical outcomes versus PBS” value (0.63% genipin in PBS, 1 week at 25° C., N=7-9) read?
Answer: Its value is “No statistically significant differences”.

Question: What about the “bone mechanical outcomes versus 90% ethanol alone” value (2% genipin in 90% ethanol, 1 week at 25° C., N=7-9) of the same compound?
Answer: The value was “No statistically significant differences”.

Question: And the bending modulus (15 mL/0.625% genipin in PBS)?
Answer: Its bending modulus is 19.2±2.2 GPa.

Question: And the maximum flexural strength (15 mL/0.625% genipin in PBS)?
Answer: The maximum flexural strength was 293.0±20.3 MPa.

Question: And the bending modulus (25 mL/0.625% genipin in PBS)?
Answer: The bending modulus was 26.7±2.2 GPa.

Question: And the maximum flexural strength (25 mL/0.625% genipin in PBS)?
Answer: Its maximum flexural strength is 346.9±42.3 MPa.
